Laboratory results reported in article PMC6434988.
Results are given in words; binding and its absence hold for the method and conditions named. In cells and extracts the contact can be indirect.

The chains behind the UniProt entries cited, without tags or fusion partners. Residues count along the entry.
UniProt P02769, residues 25-607: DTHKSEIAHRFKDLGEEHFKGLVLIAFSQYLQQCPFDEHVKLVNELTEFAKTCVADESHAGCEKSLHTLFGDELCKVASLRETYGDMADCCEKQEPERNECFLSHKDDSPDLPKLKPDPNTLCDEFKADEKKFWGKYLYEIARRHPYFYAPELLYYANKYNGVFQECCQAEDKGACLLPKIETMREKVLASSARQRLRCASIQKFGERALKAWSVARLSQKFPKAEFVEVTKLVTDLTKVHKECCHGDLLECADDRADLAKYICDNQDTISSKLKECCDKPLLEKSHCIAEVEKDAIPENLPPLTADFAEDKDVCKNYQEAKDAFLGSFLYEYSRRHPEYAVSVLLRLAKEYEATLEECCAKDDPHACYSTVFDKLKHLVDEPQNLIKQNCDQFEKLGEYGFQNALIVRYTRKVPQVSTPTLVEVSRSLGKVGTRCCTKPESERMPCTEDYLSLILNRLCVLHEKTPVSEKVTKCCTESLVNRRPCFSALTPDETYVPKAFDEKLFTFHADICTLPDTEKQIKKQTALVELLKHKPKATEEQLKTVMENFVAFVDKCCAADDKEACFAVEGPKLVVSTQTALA

Molecular target: bovine serum albumin (BSA) (protease free) coupled to cyanogen bromide-activated sepharose 4B (bovine) (UniProt P02769)
Assay: pull-down; collagen sepharose affinity chromatography: collagen type I or BSA (100 ug/mL) coupled to CNBr-activated sepharose 4B; washed human platelets (4 x 10^8 cells) pre-incubated with vehicle (0.1% DMSO), control IgG, inhibitory anti-HSP47 (10 ug/mL) or SMIH (20 uM) for 2 min at 37 C, lysed with 2% NP40 buffer; beads rotated 1 h at 4 C; bound proteins by immunoblot; only the target purified

binding: no binding
B1: Heat shock protein 47 (HSP47), platelet-derived (protein, UniProt P50454 19-418)
chain: AEVKKPAAAAAPGTAEKLSPKAATLAERSAGLAFSLYQAMAKDQAVENILVSPVVVASSLGLVSLGGKATTASQAKAVLSAEQLRDEEVHAGLGELLRSLSNSTARNVTWKLGSRLYGPSSVSFADDFVRSSKQHYNCEHSKINFRDKRSALQSINEWAAQTTDGKLPEVTKDVERTDGALLVNAMFFKPHWDEKFHHKMVDNRGFMVTRSYTVGVMMMHRTGLYNYYDDEKEKLQIVEMPLAHKLSSLIILMPHHVEPLERLEKLLTKEQLKIWMGKMQKKAVAISLPKGVVEVTHDLQKHLAGLGLTEAIDKNKADLSRMSGKKDLYLASVFHATAFELDTDGNPFDQDIYGREELRSPKLFYADHPFIFLVRDTQSGSLLFIGRLVRPKGDKMRDEL
